Assay results as given in article doi:10.1101/2025.07.10.664194.
Results are given in words; binding and its absence hold for the method and conditions named. Some results given as binding are weak or reduced against the parent protein; the word gives no strength.

Target: T1, BcGabija GajA (Bacillus cereus) (UniProt J8H9C1)
T1 sequence: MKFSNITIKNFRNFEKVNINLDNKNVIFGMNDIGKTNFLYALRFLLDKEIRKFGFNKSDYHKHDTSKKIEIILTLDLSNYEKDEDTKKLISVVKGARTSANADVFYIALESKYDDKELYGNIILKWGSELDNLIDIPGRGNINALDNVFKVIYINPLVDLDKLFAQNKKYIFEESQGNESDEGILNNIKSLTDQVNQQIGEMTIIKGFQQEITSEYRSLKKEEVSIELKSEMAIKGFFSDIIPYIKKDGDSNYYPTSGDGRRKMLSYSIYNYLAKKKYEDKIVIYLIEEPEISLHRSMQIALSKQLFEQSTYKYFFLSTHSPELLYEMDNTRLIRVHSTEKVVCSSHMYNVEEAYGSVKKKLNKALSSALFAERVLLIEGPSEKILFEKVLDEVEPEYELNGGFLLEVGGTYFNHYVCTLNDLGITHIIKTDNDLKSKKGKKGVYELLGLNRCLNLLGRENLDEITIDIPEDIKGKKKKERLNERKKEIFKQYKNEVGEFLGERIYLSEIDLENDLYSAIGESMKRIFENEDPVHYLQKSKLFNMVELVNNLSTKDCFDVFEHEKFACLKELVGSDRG
Test: co-purification

B1: BcGabija GajB (protein, UniProt J8HQ06 1-494)
chain: MSREQIIKDGGNILVTAGAGSGKTTILVSKIEADLKENKTHYSIAAVTFTNKAAKEIEGRLGYSSRGNFIGTNDGFVESEIIRPFIKDAFGNDYPDNFTAEYFDNQFASYDKGLQVLKYQNILGTYSNPKKNFKFQLALDILKKSLVARQYIFSKYFKIFIDEYQDSDKDMHNLFMYLKDQLKIKLFIVGDPKQSIYIWRGAEPENFNGLIENSTDFNKYHLTSNFRCCQDIQNYSNLFNEETRSLIKEKNEVQNVISIADDMPISDILLKLTEEKQVLNIEAELVILVRRRNQAIEIMKELNEEGFNFIFIPQTPLDRATPNATLLKEVIKYVKNDRYSIYDLAAEIVGNLSSREIKEIQKIINELLVPNINQVLINQVLINLFAKLEITLDTREITAFTEVMMTNEFDIAFDTNEYLHKIFTVHSAKGLEFNQVIITASDYNVHYNRDTNEHYVATTRAKDKLIVIMDNKKYSDYIETLMKELKIKNIIKSI
Q: With B1 as the binder, how does the binding read?
A: The binding was “binds”.
